Measurements from “University of Dundee, Small-Polar-MMV Screening Library” (2021), ChEMBL document CHEMBL3988442.

Amino acid sequences for entries named in this document (tags omitted). Residues count along the entry.
UniProt I6X8D2, whole entry: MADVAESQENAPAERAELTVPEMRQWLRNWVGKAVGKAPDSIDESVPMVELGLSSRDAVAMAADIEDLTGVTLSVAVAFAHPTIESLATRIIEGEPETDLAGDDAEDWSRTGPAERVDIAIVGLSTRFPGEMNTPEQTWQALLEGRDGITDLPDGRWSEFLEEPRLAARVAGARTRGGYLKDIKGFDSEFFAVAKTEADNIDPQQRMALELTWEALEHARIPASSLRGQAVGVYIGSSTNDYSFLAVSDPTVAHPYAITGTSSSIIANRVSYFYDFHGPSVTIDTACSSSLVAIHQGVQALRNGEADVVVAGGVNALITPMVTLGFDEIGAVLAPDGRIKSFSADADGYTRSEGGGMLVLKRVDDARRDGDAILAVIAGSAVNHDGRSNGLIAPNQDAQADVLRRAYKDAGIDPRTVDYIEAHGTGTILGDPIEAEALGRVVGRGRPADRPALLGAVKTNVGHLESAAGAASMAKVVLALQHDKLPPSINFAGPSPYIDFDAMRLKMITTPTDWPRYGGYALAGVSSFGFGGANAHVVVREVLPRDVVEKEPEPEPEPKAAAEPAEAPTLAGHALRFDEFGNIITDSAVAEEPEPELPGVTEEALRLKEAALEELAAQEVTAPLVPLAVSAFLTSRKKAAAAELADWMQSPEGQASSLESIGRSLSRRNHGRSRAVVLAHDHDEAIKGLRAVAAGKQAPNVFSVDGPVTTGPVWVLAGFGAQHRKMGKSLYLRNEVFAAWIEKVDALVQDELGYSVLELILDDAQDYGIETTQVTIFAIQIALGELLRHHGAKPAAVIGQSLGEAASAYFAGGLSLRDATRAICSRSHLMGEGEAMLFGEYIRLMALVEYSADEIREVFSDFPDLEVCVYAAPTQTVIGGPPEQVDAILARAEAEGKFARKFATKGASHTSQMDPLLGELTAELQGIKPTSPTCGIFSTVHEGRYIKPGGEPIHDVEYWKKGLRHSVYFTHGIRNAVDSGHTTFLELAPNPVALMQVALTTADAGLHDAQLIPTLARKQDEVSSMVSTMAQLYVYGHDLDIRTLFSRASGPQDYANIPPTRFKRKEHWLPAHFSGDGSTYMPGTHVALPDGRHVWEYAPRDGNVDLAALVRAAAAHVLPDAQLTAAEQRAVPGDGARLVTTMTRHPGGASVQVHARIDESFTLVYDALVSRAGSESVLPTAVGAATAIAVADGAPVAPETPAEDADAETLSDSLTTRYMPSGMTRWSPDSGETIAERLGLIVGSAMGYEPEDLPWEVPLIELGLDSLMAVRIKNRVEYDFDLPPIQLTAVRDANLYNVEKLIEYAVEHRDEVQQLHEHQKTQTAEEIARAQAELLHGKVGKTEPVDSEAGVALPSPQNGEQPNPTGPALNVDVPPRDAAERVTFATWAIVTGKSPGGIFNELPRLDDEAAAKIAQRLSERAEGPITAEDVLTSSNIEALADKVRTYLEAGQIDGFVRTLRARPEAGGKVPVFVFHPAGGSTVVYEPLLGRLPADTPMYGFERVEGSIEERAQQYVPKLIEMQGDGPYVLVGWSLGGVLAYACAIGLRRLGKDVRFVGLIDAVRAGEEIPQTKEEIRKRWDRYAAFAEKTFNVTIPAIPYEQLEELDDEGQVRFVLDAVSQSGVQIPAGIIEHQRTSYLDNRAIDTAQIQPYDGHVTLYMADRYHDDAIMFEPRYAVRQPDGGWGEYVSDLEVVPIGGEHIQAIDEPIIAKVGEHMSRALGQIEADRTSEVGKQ
UniProt A4I591, 1-473: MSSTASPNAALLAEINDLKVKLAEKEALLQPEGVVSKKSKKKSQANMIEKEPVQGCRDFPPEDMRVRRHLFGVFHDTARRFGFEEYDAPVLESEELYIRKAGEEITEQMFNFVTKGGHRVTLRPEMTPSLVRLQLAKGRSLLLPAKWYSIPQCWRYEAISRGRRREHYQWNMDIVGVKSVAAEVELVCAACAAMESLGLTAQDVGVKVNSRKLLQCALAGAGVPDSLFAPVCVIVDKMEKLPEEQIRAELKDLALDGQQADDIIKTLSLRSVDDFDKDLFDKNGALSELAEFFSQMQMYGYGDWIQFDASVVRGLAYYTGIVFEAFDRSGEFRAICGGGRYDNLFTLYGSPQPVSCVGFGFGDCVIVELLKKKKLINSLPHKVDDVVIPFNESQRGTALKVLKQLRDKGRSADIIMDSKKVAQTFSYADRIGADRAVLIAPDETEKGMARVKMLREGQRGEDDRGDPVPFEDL

A: 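Enzyme assay of the thioesterase domain of polyketide synthase 13; the read-out is not stated. Target: Polyketide synthase Pks13, Mycobacterium tuberculosis (UniProt I6X8D2). Concentration: 30 µM. Higher reads as stronger inhibition (inferred from which compounds were picked for retests). About 67,000 compounds were tested under these conditions; 0.46% (about 300) showed 50% or more at least once.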
B: 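Histidine-tRNA ligase, Leishmania infantum (UniProt A4I591). Enzyme assay of histidyl-tRNA synthetase; the read-out is not stated. Compounds at 30 µM. Direction is inferred from retests: higher values go with stronger inhibition. The assay is labelled LdHisRS but filed under L. infantum. Size under these conditions: about 69,000 compounds, about 410 of them at 50% or above in at least one test.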

Values are the deposited “Percent Effect”, in %.
The record does not define 0% and 100%; most values in the screen are far below 50% and negative numbers occur (in some assays of this library far below -100).
The compounds are a random part of those screened.

Compound | A | B
COc1ccccc1CNC(=O)N1CCCC(NS(C)(=O)=O)C1 (configuration not stated) | -14.22 | 2.667
CN1CCC2(CC1)C(=O)N(c1cccnc1)c1ccc(F)cc12 | -20.21 | 21.37
CCc1ccccc1CN1CCN(Cc2ncc[nH]2)[C@H]2CS(=O)(=O)C[C@H]21 | -16.55 | 13.21
Cc1ccc(N2C[C@H]3OCC[C@H]3[C@H](C(=O)NC3CCC3)C2)nn1 | -11.38 | 11.76
Cc1nc(-c2ccccc2C)n(CC(=O)NC(C)C2CC2)n1 (configuration not stated) | -19.04 | 15.97
Cc1ccc(C#N)c(N2CCC3(CCC(=O)N(CC(N)=O)C3)CC2)n1 | -13.34 | 16.39
COc1ccc2nc(C3CC3)cc(C(=O)NCC(=O)N(C)C)c2c1 | -13.41 | 18.31
CO[C@H]1CCN(c2nnc(C)s2)C[C@@H]1Cc1cccc(C)c1 | -21.34 | 36.11
COCc1cnc2n1CCN(C(=O)C1=CCCCC1)C2C (configuration not stated) | -40.98 | 11.65
Cc1nc2ccccc2nc1CN1CCc2c(nc(C3CC3)n2C)C1 | -5.168 | 14.16
CCN(CC1CN(Cc2cccc(C#N)c2)CCO1)c1cccnn1 (configuration not stated) | -19.54 | 20.54
CC(C)OCCN1CCN(c2ccc(CN(C)C)cn2)CC1 | -27.12 | 18.99
CNc1cc(N2CCCC2CNCc2cnc(C)s2)ncn1 (configuration not stated) | -20.32 | 12.84
Cc1ccc(CN2CCCn3c(nc(Cn4ccnc4)cc3=O)C2)o1 | 3.445 | 15.38
CCc1nccn1C1CCCN(C(=O)CCc2nccs2)C1 (configuration not stated) | -10.43 | 9.524
Cn1ccc2c(C(=O)N3CCC4(CCOC4)C3)cccc21 (configuration not stated) | -4.072 | 7.071
Cn1cc(NS(=O)(=O)c2ccc(F)c(F)c2)ccc1=O | -2.986 | 47.27
CCN(C(=O)CNC1CCc2ncnn2C1)C1=CCCCC1 (configuration not stated) | 19.33 | -2.941
c1cnc(N2CCC(NCc3cnc(C4CCC4)s3)CC2)nc1 | -27.77 | 8.333
CCOc1cc(CN(C)CC(=O)O)ccc1OC(F)F | 0.5102 | -1.176
COCCN(Cc1ccccn1)Cc1sccc1C | -15.78 | 6.173
O=C1CCCN1Cc1nc(-c2ccsc2)no1 | -15.9 | 16.67
CC(=O)NCC(=O)N(CCN1CCOCC1)Cc1ccco1 | -2.644 | 4
CCNC(=O)C1CCCN1S(=O)(=O)c1sc(=O)[nH]c1C (configuration not stated) | -26.8 | 11.11
COc1cccc(-n2cc(CN(C)C(=O)c3cc[nH]n3)cn2)c1 | -47.26 | 28.57
c1cnc2nc(N3CCCC3c3nnc4n3CCCCC4)ccc2n1 (configuration not stated) | -1.406 | -2.174
O=C(c1cccnc1)N1C[C@@H]2OCC(=O)N(Cc3cccnc3)[C@@H]2C1 | 3.99 | 14.86
Fc1ccc(OCc2nnc([C@H]3CCN(Cc4ccncc4)C3)o2)cc1 | 5.647 | 25
CC(O)CN1CCC(CNCc2cccc(OC(C)C)c2)CC1 (configuration not stated) | -15.58 | 26.19
Cc1c(Br)cnn1CC(=O)Nc1ccon1 | -15.03 | 11.11
Cc1nnc2n1CCN(CCS(=O)(=O)c1ccccc1)C2 | -27.31 | 16.44
O=C(NCCSCc1ccc(Br)s1)C1CCCN(C(=O)c2cccs2)C1 (configuration not stated) | 5.872 | 19.19
Cc1ccc(F)c(OC2CCCN(c3cnn(C)c3)C2=O)c1 (configuration not stated) | -29.44 | 14.29
CN(CC(=O)N1CCN(CC(C)(C)O)CC1)c1ccc(Cl)cn1 | -6.515 | 12.24
CC1CN(C)CCN1C(=O)c1ccc(-n2cnnc2)cc1 (configuration not stated) | -10.77 | 12.9
O=C(CC1COCCN1S(=O)(=O)c1ccccc1)NCc1ccccn1 (configuration not stated) | -11.73 | 10.2
CC(C)n1nc2c(cc1=O)CN(CCOc1ccccc1C#N)CC2 | 32.25 | 12.5
CN(C)c1ccc2c(c1)CN(C(=O)c1c[nH]cn1)C2c1cnco1 (configuration not stated) | 23.46 | 8.547
Cc1nnnn1CCC(=O)N1CCC2(CCC(=O)N(CC3CC3)C2)CC1 | -11.22 | 15.96
CC(=O)c1cccc(NC(=O)Cn2cnc(-c3cccs3)cc2=O)c1 | -31.46 | 17.39
COCCOCC(=O)NCc1ccc(N(C)C)nc1 | -8.27 | 4.286
COc1ccnc(NCc2ccccc2Cn2cccn2)n1 | -23.83 | 20
O=c1cc(CN2CCCC2)nc2n1CCCN(S(=O)(=O)C1CC1)C2 | 5.049 | 9.615
Cc1nc(N2C[C@@H](CN3CCCCC3)[C@@H](CO)C2)c2sccc2n1 | -38.43 | 18.67
Cc1cc(C)n(C2CCCN(C(=O)c3cn4cccnc4n3)C2)n1 (configuration not stated) | 0.1362 | 12.28
CN(Cc1ccsc1)C(=O)Nc1cccc(N2CCOC2=O)c1 | 13.19 | 2.857
c1cncc(-c2ccc3c(c2)CCC32CCN(Cc3nccs3)CC2)c1 | -19.68 | 48
CCOCC(O)CN1CCN(C(=O)c2ccnc(N(C)C)c2)CC1 (configuration not stated) | -29.13 | 9.615

Repeated from the top, 6 entries:

With COc1ccccc1CNC(=O)N1CCCC(NS(C)(=O)=O)C1 (configuration not stated) the screen gave A: -14.22%; B: 2.667%.
With CN1CCC2(CC1)C(=O)N(c1cccnc1)c1ccc(F)cc12 the screen gave A: -20.21%; B: 21.37%.
With CCc1ccccc1CN1CCN(Cc2ncc[nH]2)[C@H]2CS(=O)(=O)C[C@H]21 the screen gave A: -16.55%; B: 13.21%.
With Cc1ccc(N2C[C@H]3OCC[C@H]3[C@H](C(=O)NC3CCC3)C2)nn1 the screen gave A: -11.38%; B: 11.76%.
With Cc1nc(-c2ccccc2C)n(CC(=O)NC(C)C2CC2)n1 (configuration not stated) the screen gave A: -19.04%; B: 15.97%.
With Cc1ccc(C#N)c(N2CCC3(CCC(=O)N(CC(N)=O)C3)CC2)n1 the screen gave A: -13.34%; B: 16.39%.